From the supplement of paper PMC7024190
Structures can show the parent of a compound that is named as a salt. Some of the results follow. Single values are uncertain here, since repeats match poorly.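 A first-round screen of about ten thousand compounds sought those raising reporter output, using human embryonic kidney cells briefly transfected with a plasmid carrying a Renilla luciferase gene driven by the HSV-TK promoter.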

These compounds were tested on HEK 293FT (assay: log relative Renilla luciferase luminescence (reporter expression vs reference, reference not stated) (log (base not stated)); higher = higher recombinant reporter expression). Settings: 10 µM; time after transfection 48 h.
With `N=C(N)NCCN1CCCCCCC1` [Guanethidine sulfate] the log was 0.151. Work on `C#C[C@]1(O)CC[C@H]2[C@@H]3CCC4=CC(=O)CC[C@@H]4[C@H]3CC[C@@]21CC` [Norgestrel-(-)-D] yielded a log of -0.111. `CC(C(=O)O)c1ccc(C(=O)c2ccccc2)s1` (stereo unspecified) [Tiaprofenic acid] showed a log of 0.0581. Work on `CC(=O)N(CC(O)CN(C(C)=O)c1c(I)c(C(=O)NCC(O)CO)c(I)c(C(=O)NCC(O)CO)c1I)c1c(I)c(C(=O)NCC(O)CO)c(I)c(C(=O)NCC(O)CO)c1I` (stereo unspecified) [Iodixanol] yielded a log of -0.0696. Compound `c1ccc(CN(CC2=NCCN2)c2ccccc2)cc1` [Antazoline hydrochloride] has a log of 0.0464. With `CN(C)CC/C=C1/c2ccccc2COc2ccc(CC(=O)O)cc21` [Olopatadine hydrochloride] the log was 0.0464. `C=CCSCC1Nc2cc(Cl)c(S(N)(=O)=O)cc2S(=O)(=O)N1` (stereo unspecified) [Althiazide] showed a log of -0.412. `C[C@]12CC[C@@H]3c4ccc(OS(=O)(=O)O)cc4CC[C@H]3[C@@H]1CCC2=O` [Estropipate] gave a log of 0.121. Compound `Cc1ccc(S(=O)(=O)NC(=O)NN2CCCCCC2)cc1` [Tolazamide] has a log of 0.132. In the case of `CCN(CC)CCOC(=O)C(c1ccccc1)c1ccccc1` [Adiphenine hydrochloride], the log was 0.14. Compound `OC(CCCN1CCCCC1)(c1ccccc1)c1ccccc1` [Diphenidol hydrochloride] has a log of -0.166. With `Nc1nc(NC2CC2)c2ncn([C@H]3C=C[C@@H](CO)C3)c2n1` [Abacavir Sulfate] the log was -0.388. `CN(Cc1cnc2nc(N)nc(N)c2n1)c1ccc(C(=O)N[C@@H](CCC(=O)O)C(=O)O)cc1` [Methotrexate] showed a log of -0.416. `CN(Cc1cnc2nc(N)nc(N)c2n1)c1ccc(C(=O)N[C@@H](CCC(=O)O)C(=O)O)cc1` (racemic) [Amethopterin (R,S)] was tested, and the log was -0.313. Work on `O=C(COc1ccc(Cl)cc1)N1CCN(Cc2ccc3c(c2)OCO3)CC1` [Fipexide hydrochloride] yielded a log of 0.0619. Compound `CNC(C)CCC=C(C)C` (stereo unspecified) [Isometheptene mucate] has a log of -0.103. Compound `CCN(CC)CCNc1ccc(CO)c2sc3ccccc3c(=O)c12` [Hycanthone] has a log of 0.0481. Compound `CN(C)c1ccc(O)c2c1C[C@H]1C[C@H]3[C@H](N(C)C)C(O)=C(C(N)=O)C(=O)[C@@]3(O)C(O)=C1C2=O` [Minocycline hydrochloride] has a log of 0.197. `Cc1ccsc1/C=C/C1=NCCCN1C` [Morantel tartrate] gave a log of 0.121. `CN(C)[C@@H]1C(O)=C(C(N)=O)C(=O)[C@@]2(O)C(O)=C3C(=O)c4c(O)cccc4[C@@](C)(O)[C@H]3[C@H](O)[C@@H]12` [Oxytetracycline dihydrate] showed a log of 0.0787. `CSc1ccc2c(c1)N(CCC1CCCCN1C)c1ccccc1S2` (stereo unspecified) [Thioridazine hydrochloride] was tested, and the log was -0.00375. `CC/C(=C(/CC)c1ccc(O)cc1)c1ccc(O)cc1` [Diethylstilbestrol] was tested, and the log was -0.041. With `CC1=C(/C=C/C(C)=C/C=C/C(C)=C\C(=O)O)C(C)(C)CCC1` [Isotretinoin] the log was 0.0157. With `NC(N)=Nc1nc(CSCC/C(N)=N/S(N)(=O)=O)cs1` [Famotidine] the log was -0.0566. `Cc1cc(-c2ccccc2)nnc1NCCN1CCOCC1` [Minaprine dihydrochloride] gave a log of -0.0812. In the case of `COc1cc(-c2ccc(=O)[nH]n2)ccc1OC(F)F` [Zardaverine], the log was -0.213. In the case of `CCCCC1(COC(=O)CCC(=O)O)C(=O)N(c2ccccc2)N(c2ccccc2)C1=O` [Suxibuzone], the log was 0.0878. `COc1cc(NC(C)CCCN)c2ncccc2c1` (stereo unspecified) [Primaquine diphosphate] gave a log of -0.199. With `CCCCNc1c(C(=O)OCC)c(C)nc2c1cnn2CC` [Tracazolate hydrochloride] the log was 0.157. `CC(C)(C)c1ccc(C(O)CCCN2CCC(C(O)(c3ccccc3)c3ccccc3)CC2)cc1` (stereo unspecified) [Terfenadine] gave a log of 0.0422. Work on `CC(COc1ccccc1)NC(C)C(O)c1ccc(O)cc1` (stereo unspecified) [Isoxsuprine hydrochloride] yielded a log of -0.0196. For `CCCCN1CCCCC1C(=O)Nc1c(C)cccc1C` (stereo unspecified) [Bupivacaine hydrochloride], the log was 0.0303. For `CCOC(=O)NNc1nncc2ccccc12` [Todralazine hydrochloride], the log was -0.58. `CCN(CCO)CCCC(C)Nc1ccnc2cc(Cl)ccc12` (stereo unspecified) [Hydroxychloroquine sulfate] showed a log of -0.375. Work on `COc1ccc(CC2c3cc(OC)c(OC)cc3CC[N+]2(C)CCC(=O)OCCCCCOC(=O)CC[N+]2(C)CCc3cc(OC)c(OC)cc3C2Cc2ccc(OC)c(OC)c2)cc1OC` (stereo unspecified) [Atracurium besylate] yielded a log of -0.063. For `CC(=O)[C@H]1CC[C@H]2[C@@H]3CC=C4C[C@@H](O)CC[C@]4(C)[C@H]3CC[C@]12C` [Pregnenolone], the log was 0.0914. `CN(C)CCCN1c2ccccc2Sc2ccc(Cl)cc21` [Chlorpromazine hydrochloride] was tested, and the log was 0.0324. Compound `CCOc1ccccc1OC(c1ccccc1)C1CNCCO1` (stereo unspecified) [Reboxetine mesylate] has a log of 0.0079. For `Nc1ccc(S(=O)(=O)Nc2ccccn2)cc1` [Sulfapyridine], the log was -0.0623. `Nc1ccn([C@@H]2O[C@H](CO)[C@@H](O)[C@@H]2O)c(=O)n1` [Cytarabine] showed a log of -0.399. `CN(C)C(=N)NC(=N)N` [Metformin hydrochloride] gave a log of 0.0444. Work on `NCCCCCC(=O)O` [Aminocaproic acid] yielded a log of 0.0695. `CNCCc1ccccn1` [Betahistine mesylate] was tested, and the log was 0.0842. Work on `CC=CC(=O)N(CC)c1ccccc1C` [Crotamiton] yielded a log of -0.0456. `Nc1nc2c(ncn2COC(CO)CO)c(=O)[nH]1` [Ganciclovir] showed a log of -0.156. Compound `Clc1cccc(Cl)c1NC1=NCCN1` [Clonidine hydrochloride] has a log of 0.109. `CO[C@H]1/C=C/O[C@@]2(C)Oc3c(C)c(O)c4c(O)c(c5c(nc6cc(C)ccn65)c4c3C2=O)NC(=O)/C(C)=C\C=C\[C@H](C)[C@H](O)[C@@H](C)[C@@H](O)[C@@H](C)[C@H](OC(C)=O)[C@@H]1C` [Rifaximin] showed a log of -1.34. Compound `CCN(CC)C(C)CN1c2ccccc2Sc2ccccc21` (stereo unspecified) [Ethopropazine hydrochloride] has a log of 0.1. Compound `CCCNC(=O)NS(=O)(=O)c1ccc(Cl)cc1` [Chlorpropamide] has a log of -0.137. For `CC(=O)O[C@]1(C(C)=O)CC[C@H]2[C@@H]3C=C(Cl)C4=CC(=O)CC[C@]4(C)[C@H]3CC[C@@]21C` [Chlormadinone acetate], the log was -0.00154. `CN(C)CCOC(c1ccccc1)c1ccccc1.Cn1c(=O)c2[nH]c(Cl)nc2n(C)c1=O` [Dimenhydrinate] gave a log of 0.145. `O=C1NCC2(CCN(CCc3ccccc3)CC2)O1` [Fenspiride hydrochloride] gave a log of 0.0683. `Clc1ccc2c(c1)CCc1cccnc1C2=C1CCNCC1` [Desloratadine] gave a log of -0.0173. Work on `CCCOc1ccc2[nH]c(NC(=O)OC)nc2c1` [Oxibendazol] yielded a log of -0.153. For `O=C(c1ccc(F)cc1)C1CCN(CCn2c(=O)[nH]c3ccccc3c2=O)CC1` [Ketanserin tartrate hydrate], the log was 0.0285. Work on `CCN(CC)C(=O)c1ccc(O)c(OC)c1` [Ethamivan] yielded a log of -0.0265. Compound `c1ccc(-c2ccc(C(c3ccccc3)n3ccnc3)cc2)cc1` (stereo unspecified) [Bifonazole] has a log of -0.415. In the case of `Oc1c(Cl)cc(Cl)c2cccnc12` [Chloroxine], the log was 0.0175. Compound `CN(C)CCC(c1ccc(Br)cc1)c1ccccn1` (stereo unspecified) [Brompheniramine maleate] has a log of 0.000654. Work on `CC(=O)OC[C@H]1O[C@@H]([S-])[C@H](OC(C)=O)[C@@H](OC(C)=O)[C@@H]1OC(C)=O.CCP(CC)CC.[Au+]` [Auranofin] yielded a log of -1.4. `CCC1(c2ccccc2)C(=O)NCNC1=O` [Primidone] showed a log of 0.0842. For `Nc1ncnc2c1ncn2[C@@H]1O[C@H](CO)[C@@H](O)[C@@H]1O` [Vidarabine], the log was -0.0706. `C[C@@](Cc1ccc(O)c(O)c1)(NN)C(=O)O` [Carbidopa] gave a log of -0.0258. Compound `CCOc1nc2cccc(C(=O)O)c2n1Cc1ccc(-c2ccccc2-c2nnn[nH]2)cc1` [Candesartan] has a log of 0.0115. With `Cn1c(=O)c2c(ncn2CC2OCCO2)n(C)c1=O` [Doxofylline] the log was 0.0878. `CN1CCN(CC(=O)N2c3ccccc3C(=O)Nc3cccnc32)CC1` [Pirenzepine dihydrochloride] showed a log of 0.0753. In the case of `COC(=O)Nc1nc2cc(Sc3ccccc3)ccc2[nH]1` [Fenbendazole], the log was 0.113. Compound `CC(=O)N(CC(O)CO)c1c(I)c(C(=O)NCC(O)CO)c(I)c(C(=O)NCC(O)CO)c1I` (stereo unspecified) [Iohexol] has a log of -0.00821. `CN(CCCCCCCCCCN(C)C(=O)Oc1cccc([N+](C)(C)C)c1)C(=O)Oc1cccc([N+](C)(C)C)c1` [Demecarium bromide] gave a log of 0.0511. Compound `CC(CNC1CCCCC1)OC(=O)c1ccccc1` (stereo unspecified) [Hexylcaine hydrochloride] has a log of -0.0934. Work on `Nc1ccc(S(=O)(=O)Nc2nccs2)cc1` [Sulfathiazole] yielded a log of -0.0105. In the case of `Cc1ccc(-c2cc(C(F)(F)F)nn2-c2ccc(S(N)(=O)=O)cc2)cc1` [Celecoxib], the log was -0.995. Work on `CC[C@H]1OC(=O)[C@H](C)[C@@H](O[C@H]2C[C@@](C)(OC)[C@@H](O)[C@H](C)O2)[C@H](C)[C@@H](O[C@@H]2O[C@H](C)C[C@H](N(C)C)[C@H]2O)[C@](C)(O)C[C@@H](C)CN(C)[C@H](C)[C@@H](O)[C@]1(C)O` [Azithromycin] yielded a log of 0.131. For `C[C@@H]1CCC[C@H](C)N1NC(=O)c1ccc(Cl)c(S(N)(=O)=O)c1` [Clopamide], the log was 0.0849. For `CN[C@H]1CC[C@@H](c2ccc(Cl)c(Cl)c2)c2ccccc21` [Sertraline], the log was -0.0605. Work on `CCN(CC)CCNC(=O)c1ccc(N)cc1` [Procainamide hydrochloride] yielded a log of -0.0103.
